Measurements published in PubChem BioAssay AID1347075 (National Center for Advancing Translational Sciences (NCATS), 2019).
Screen size: about 400,000 compounds; about 5,500 (1.4%) were called active. Inconclusive results, whose numbers are uncertain, are shown with a selection of clear calls. Calls follow the shape of the dose curve; as a rule, active = well fitted cell-killing curve with a large enough effect; inconclusive = small, poorly fitted or top-dose-only effect, or effect the other way; inactive = flat fitted curve, though single readings scatter. A potency beside an inconclusive call is a rough fit, not a confirmed value.

Assay: qHTS assay for MDR1-selective chemotherapeutics: Primary screen using the parental adenocarcinoma cell KB-3-1; also: nearly all actives have a fitted effect of over 60% in size
Conditions: KB-3-1 viability, CellTiter-Glo ATP luminescence, 72 h; activity change, negative = cytotoxic: at 46.1 µM (top of the series)
Procedure, shortened: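 Luminescent ATP read-out (CellTiter-Glo) measures survival of drug-naive KB-3-1 cells after 72 h compound exposure at 37 °C. Titration series was screened from lowest to highest concentration, with DMSO vehicle plates as background controls.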
% is scaled to controls: 0 for no effect and ±100 for the full control effect; potency is read from the fitted curve at half-maximal effect.

Row | SMILES | Potency | activity change, negative = cytotoxic
1 | COc1ccccc1N1CCN(C(=S)Nc2cccc(C)c2)CC1 | inconclusive: 18.4 µM [cytotoxic, single point] | –
2 | COc1ccc(C(=O)NC23CC4CC(CC(C4)C2)C3)cc1 | inconclusive: 1.3 µM [cytotoxic, full curve, poor fit] | –
3 | COC(=O)c1ccc(CN(c2ccccn2)S(=O)(=O)c2ccccc2)cc1 | – | inactive: -12%
4 | COc1cccc(/C=C/C(=O)c2ccc3c(c2)OCO3)c1OC | inconclusive: 29.1 µM [cytotoxic, single point] | –
5 | Clc1cc(Cl)c2nc(N3CCOCC3)sc2c1 | inconclusive: 32.6 µM [cytotoxic, single point] | –
6 | COc1ccc(NC(=O)NC(C)c2ccc3c(c2)OCO3)cc1OC (centres undefined) | inconclusive: 18.4 µM [rising, partial curve, poor fit] | –
7 | Cc1cnc(C(=O)OCC(=O)Nc2cc(Cl)ccc2C#N)cn1 | inconclusive: 23.1 µM [cytotoxic, single point] | –
8 | CC(C)(C)C1CCc2nc(NC(=O)COc3ccccc3[N+](=O)[O-])sc2C1 (centres undefined) | – | inactive: -0.607%
9 | Cc1occc1-c1nnc(SC(C)C(=O)Nc2ccccc2F)o1 (centres undefined) | inconclusive: 20.6 µM [cytotoxic, single point] | –
10 | O=C(N/N=C/c1ccc(OC2CSC2)cc1)c1ccc(CN2CCOCC2)cc1 | – | inconclusive: -4.37%
11 | CC(=O)c1cccc(NC(=O)C2Cc3c(-c4ccco4)ccnc3O2)c1 (centres undefined) | inconclusive: 14.6 µM [cytotoxic, partial curve, poor fit] | –
12 | CCC(=O)Nc1ccc(S(=O)(=O)Nc2cccc(C)c2)cc1OC | inconclusive: 8.2 µM [cytotoxic, partial curve] | –
13 | CCn1c(SCC(=O)Nc2ccccc2)nc2ccccc2c1=O | – | inactive: -10.4%
14 | CCOC(=O)/C(=N\Nc1ccccc1)P(=O)(c1ccccc1)c1ccccc1 | – | inactive: -10.5%
15 | CCOC(=O)[C@]12CCCC=C1N(Cc1ccc(Cl)cc1Cl)C(=O)[C@H](CC(=O)NCCC(C)C)C2 | inconclusive: 23.1 µM [cytotoxic, single point] | –
16 | COc1cc(C(=O)Nc2scc(-c3ccc(C)cc3)c2C(=O)O)cc(OC)c1OC | – | inactive: 3.27%
17 | O=C(Nc1cccc(Cl)c1)Nc1cc(S(=O)(=O)N2CCCCC2)ccc1Cl | inconclusive: 16.4 µM [cytotoxic, single point] | –
18 | CC(=O)Nc1ccc(-c2ccnc3c2CC(C)(C(=O)Nc2cccc(OC(F)(F)F)c2)O3)cc1 (centres undefined) | inconclusive: 25.9 µM [cytotoxic, single point] | –
19 | O=C(Nc1cc(C(F)(F)F)ccc1Cl)c1noc2c1CCCCC2 | – | inactive: 0.637%

Reformatted: entries from further up.
Row,SMILES,Potency,"activity change, negative = cytotoxic"
5,Clc1cc(Cl)c2nc(N3CCOCC3)sc2c1,"inconclusive: 32.6 µM [cytotoxic, single point]",–
8,CC(C)(C)C1CCc2nc(NC(=O)COc3ccccc3[N+](=O)[O-])sc2C1 (centres undefined),–,inactive: -0.607%
9,Cc1occc1-c1nnc(SC(C)C(=O)Nc2ccccc2F)o1 (centres undefined),"inconclusive: 20.6 µM [cytotoxic, single point]",–
10,O=C(N/N=C/c1ccc(OC2CSC2)cc1)c1ccc(CN2CCOCC2)cc1,–,inconclusive: -4.37%
